Data taken from publication PMC8218485.

Target: LbHLH (Limonium bicolor)
Assay: two-hybrid; Y2H Gold yeast; bait in pGBKT7 (BD), prey in pGADT7 (AD); growth and blue colour of colonies on SD/-Leu/-Trp/X-a-gal/Aba (200 ng/ml) and SD/-Ade/-His/-Leu/-Trp/X-a-gal/Aba (200 ng/ml) after 2 days of culture

binding	Binder
no binding	AtGL3 (GLABRA3) (protein, UniProt Q9FN69 1-637) MATGQNRTTVPENLKKHLAVSVRNIQWSYGIFWSVSASQSGVLEWGDGYYNGDIKTRKTIQASEIKADQLGLRRSEQLSELYESLSVAESSSSGVAAGSQVTRRASAAALSPEDLADTEWYYLVCMSFVFNIGEGMPGRTFANGEPIWLCNAHTADSKVFSRSLLAKSAAVKTVVCFPFLGGVVEIGTTEHITEDMNVIQCVKTSFLEAPDPYATILPARSDYHIDNVLDPQQILGDEIYAPMFSTEPFPTASPSRTTNGFDQEHEQVADDHDSFMTERITGGASQVQSWQLMDDELSNCVHQSLNSSDCVSQTFVEGAAGRVAYGARKSRVQRLGQIQEQQRNVKTLSFDPRNDDVHYQSVISTIFKTNHQLILGPQFRNCDKQSSFTRWKKSSSSSSGTATVTAPSQGMLKKIIFDVPRVHQKEKLMLDSPEARDETGNHAVLEKKRREKLNERFMTLRKIIPSINKIDKVSILDDTIEYLQELERRVQELESCRESTDTETRGTMTMKRKKPCDAGERTSANCANNETGNGKKVSVNNVGEAEPADTGFTGLTDNLRIGSFGNEVVIELRCAWREGVLLEIMDVISDLHLDSHSVQSSTGDGLLCLTVNCKHKGSKIATPGMIKEALQRVAWIC
binds	AtGL1 (GLABRA1) (protein, UniProt P27900 1-228) MRIRRRDEKENQEYKKGLWTVEEDNILMDYVLNHGTGQWNRIVRKTGLKRCGKSCRLRWMNYLSPNVNKGNFTEQEEDLIIRLHKLLGNRWSLIAKRVPGRTDNQVKNYWNTHLSKKLVGDYSSAVKTTGEDDDSPPSLFITAATPSSCHHQQENIYENIAKSFNGVVSASYEDKPKQELAQKDVLMATTNDPSHYYGNNALWVHDDDFELSSLVMMNFASGDVEYCL

Results are given in words; binding and its absence hold for the method and conditions named. Binding calls can cover weak binding; strength is not graded here.
